67 compounds from PubChem BioAssay AID662 (National Center for Advancing Translational Sciences (NCATS), 2007) can be followed below.

Values joined by “and” are separate entries in the source; they are usually repeats but may differ in a detail not shown here. Equal entries are not always repeated. Some of the results follow. Further columns of the screen follow, without active or inactive calls. Compounds called inactive in the main read-out are mostly missing here. Words in brackets tell the shape of the fitted curve; partial curves, single points and poor fits give uncertain potencies.

A short description of the assay: Cell signaling CRE-BLA (Fsk stim). The conditions noted are these: CHO CRE-bla reporter (cAMP response element driving beta-lactamase), forskolin EC10, beta-lactamase ratio; measured here: 460 nm blue channel. In outline: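 The 460nm/530nm emission ratio after CCF4 loading defined %Activity, from which AC50 values were obtained. CRE-bla CHO cells received compound dilution series together with an EC10 level of NKH 477 for 3 hours at 37 degrees Celsius.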
Turning to `CC(=O)Nc1nc(N2C(=O)c3ccccc3C2=O)n(-c2ccccc2)n1`, the AC50 was 0.501 µM [rising, partial curve, poor fit].
To `C=CCSC1=C(C#N)C(c2ccccc2OCC)CC(=O)N1` (configuration not stated) belongs 3.98 µM [falling, single point]; to `COc1ccc(NC(=O)CCN2CCCCC2)cc1`, 12.6 µM [falling, single point]; to `CCc1c(C)nc(SCCOc2ccc(OC)cc2)[nH]c1=O`, 10 µM [rising, partial curve].
To `COC(=O)C1=CN(C2CC2)C=C(C(=O)OC)C1c1ccccc1OC` belongs 12.6 µM [rising, partial curve]; to `COc1ccccc1-c1nccc(-n2ccnc2)n1`, 3.16 µM [rising, single point].
Next, `CNC(=O)CCn1nc(-c2ccc(Cl)cc2)c2ccccc2c1=O`: 12.6 µM [rising, single point]; `COc1cccc(NC(=O)CN(c2cccc(C(F)(F)F)c2)S(C)(=O)=O)c1`: 0.00316 µM [falling, full curve].
For `COc1cc(-c2noc(-c3cccc(Cl)c3)n2)cc(OC)c1OC`, the AC50 was 2.51 µM [rising, single point].
To `O=C1CCCc2c1cc(C(=O)Nc1ccc(Cl)cn1)c(=O)n2-c1ccccc1` belongs 10 µM [rising, single point]; to `Cc1ccc(CN2C(=O)CCC2C(=O)NCc2ccc(F)cc2)cc1` (configuration not stated), 25.1 µM [rising, single point].
To `CCOCCOC(=O)COc1ccc(N2C(=O)c3ccccc3C2=O)cc1` belongs 0.501 µM [falling, full curve]; to `Cc1cc(-c2nnc3n2N=C(c2ccc(-c4ccccc4)cc2)CS3)n[nH]1`, 25.1 µM [falling, single point].
In the case of `O=C(c1nn2c(C(F)(F)F)cc(-c3ccc(F)cc3)nc2c1Cl)N1CCOCC1`, the AC50 is 5.01 µM [rising, partial curve].
Regarding `CS(=O)(=O)N1CCN(C(=O)c2csc3ccccc23)CC1`, the AC50 was 10 µM [rising, partial curve].
Next, `O=C(CN1CCOc2ccccc21)N1CCC(Cc2ccccc2)CC1`: 20 µM [falling, single point].
To `COc1ccc(Nc2nc(N)nc(C(F)(F)F)n2)c(OC)c1` belongs 10 µM [rising, single point]; to `N#CC(C(=O)NC1CCCCC1)c1nc2ccccc2nc1N1CCN(c2ccc(F)cc2)CC1` (configuration not stated), 10 µM [rising, partial curve]; to `O=C(OCCOc1ccccc1Cl)c1ccc(-n2cnnn2)cc1`, 25.1 µM [falling, single point].
To `CCCOc1ccc2oc(=O)c3c(c2c1)CCCN3C(=O)CN1CCCC(C(=O)OCC)C1` (configuration not stated) belongs 7.94 µM [rising, partial curve]; to `CCN1C(=O)c2cccc3c(N)ccc1c23`, 12.6 µM [rising, partial curve].
In the case of `CC(=O)NCCn1c(SCC(=O)c2ccccc2)nc2ccccc2c1=O`, the AC50 was 10 µM [rising, partial curve].
To `CCC(C)OC(=O)c1[nH]c2c(c1C)C(=O)CC(c1ccc(N(C)C)cc1)C2` (configuration not stated) belongs 2.51 µM [rising, full curve, poor fit].
Take `CC(C(=O)O)n1nc2ccccc2n1` (configuration not stated): the AC50 was 5.01 µM [falling, single point].
To `C[C@H](Cc1ccc(O)c(O)c1)[C@@H](C)Cc1ccc(O)c(O)c1` belongs 10 µM [falling, partial curve] and 5.01 µM [falling, partial curve].
With `Cc1ccc(NS(=O)(=O)c2ccc(NC(=O)c3ccc(Br)o3)cc2)c(C)c1`, the AC50 was 0.00794 µM [falling, full curve, poor fit].
Next, `CCN1CC=C2C(C#N)=C(N)C(C#N)(C#N)C(c3cc(Cl)ccc3Cl)C2C1` (configuration not stated): 5.01 µM [rising, full curve]; `C=CCn1c(SCC(=O)Nc2sccc2C(N)=O)nc2sc(C)c(C)c2c1=O`: 1.58 µM [rising, full curve].
To `Cc1nc(NC2CCCCC2)c2nc(-c3ccccc3)n(CCN3CCCCC3)c2n1` belongs 12.6 µM [rising, partial curve]; to `N#Cc1nc(-c2ccco2)oc1N1CCN(c2ccccc2)CC1`, 10 µM [rising, single point]; to `CCCOc1nc2c(c(=O)n(C)c(=O)n2C)n1Cc1cccc2ccccc12`, 15.8 µM [rising, single point].
To `CCCC(C)C(=O)Nc1ccc(C(N)=O)cc1` (configuration not stated) belongs 10 µM [falling, partial curve, poor fit].
On to `CCC(=O)Oc1ccc(C/C(=N\O)c2ccc(O)cc2O)o1`, for which the AC50 is 3.16 µM [falling, full curve].
To `Cn1c(SCC(=O)c2ccccc2)nnc1C1CC1` belongs 0.2 µM [falling, full curve]; to `COCCCNC(=O)CCc1nc(-c2ccccc2)no1`, 3.16 µM [falling, single point]; to `COC(=O)[C@@]1(Cc2ccc(OC)cc2)[C@H]2c3cc(C(=O)N4CCCC4)n(CCc4ccccn4)c3C[C@H]2CN1C(=O)c1ccccc1`, 0.126 µM [rising, full curve, poor fit].
With `COc1ccccc1N1CCN(C(=O)c2cc3c(-c4ccc(Cl)cc4)nn(C)c3s2)CC1`, the AC50 was 25.1 µM [falling, single point].
Next, `CC(=O)NCCNc1ncnc2ccc(-c3c(C)noc3C)cc12`: 5.01 µM [rising, full curve]; `CCc1nnc(SCC(=O)N2CCCc3ccccc32)nc1CC`: 0.00398 µM [falling, full curve, poor fit].
Consider `CCn1c(SCC(=O)N(Cc2ccccc2)C2CCS(=O)(=O)C2)nc2ccccc2c1=O` (configuration not stated), for which the AC50 was 15.8 µM [rising, single point].
Next, `Cc1csc(N(C)C(=O)CSc2nnc(COc3ccccc3C)o2)n1`: 0.00398 µM [falling, full curve, poor fit]; `Cc1ccc2c(c1)[nH]c1c(=O)n(Cc3ccccn3)cnc12`: 12.6 µM [rising, single point].
In the case of `CCN(CC)CCOc1nc(C)nc2c1oc1ccccc12`, the AC50 was 25.1 µM [rising, single point].
With `COc1cc(C(=O)Nc2ccc(S(=O)(=O)N3CCCCC3C)cc2)cc(OC)c1OC` (configuration not stated), the AC50 was 10 µM [rising, partial curve].
Next, `COc1cccc(-c2nnc(SCC(=O)Nc3ccc4c(c3)OCCO4)n2Cc2ccco2)c1`: 3.16 µM [rising, full curve, poor fit]; `O=C(c1ccccc1)c1ccc(Oc2ncccn2)cc1`: 2 µM [falling, single point].
As to `CCn1cc(C(=O)OCc2ccccc2)c(=O)c2ccc(C)nc21`, the AC50 is 10 µM [rising, partial curve].
To `O=C(OCCN1C(=O)c2ccccc2C1=O)c1cc(S(=O)(=O)N2CCOCC2)ccc1Cl` belongs 6.31 µM [rising, partial curve]; to `COc1cccc(Cn2c(=O)c(-c3cccc(C#N)c3)nc3cnc(N4CCN(C)CC4)nc32)c1`, 5.01 µM [rising, partial curve].
Next, `COc1ccc2c(c1OC)C(=O)N(c1ccccn1)C2`: 25.1 µM [rising, single point]; `Cn1cccc1Cc1nnc(SCC(=O)Nc2ccc(Cl)cc2)n1-c1ccc(F)cc1`: 12.6 µM [falling, partial curve]; `Cc1nnc(SCCn2c(Br)nc3c2c(=O)[nH]c(=O)n3C)s1`: 15.8 µM [rising, single point].
Regarding `COc1cccc(N2CCN(C(=O)C3C4C=CC5(CN(Cc6ccccc6Cl)C(=O)C35)O4)CC2)c1` (configuration not stated), the AC50 is 0.0794 µM [rising, full curve, poor fit].
Next, `COc1ccc(-c2ccc(-c3noc(C4CCCCC4)n3)c(OC)n2)cc1`: 10 µM [rising, single point]; `COc1cc(CNc2ccccc2SC)ccc1O`: 0.00398 µM [falling, full curve, poor fit]; `COc1cccc(N2CCN(C(=O)c3[nH]c(C)c(C(C)=O)c3C)CC2)c1`: 3.16 µM [falling, single point].
With `O=C1C(c2ccncc2)=C(O)c2ccccc21`, the AC50 is 6.31 µM [falling, partial curve].
Next, `O=C(NC1=NCCS1)c1cc2ccccc2o1`: 0.316 µM [rising, full curve]; `COc1cc(CN2CCC(C(=O)N3CCC(C)CC3)CC2)cc(Br)c1O`: 3.16 µM [falling, full curve].
Next, `O=c1c(-c2ccccc2)nc2cnc(N3CCOCC3)nc2n1Cc1cccs1`: 7.94 µM [rising, partial curve]; `CN(C)/C=N/c1sccc1C(N)=O`: 0.00316 µM [falling, full curve, poor fit]; `O=C(CSc1nnnn1-c1ccccc1Cl)Nc1ccc2c(c1)OCCO2`: 12.6 µM [falling, single point].
Take `CCOCC(O)CS(=O)Cc1ccccc1` (configuration not stated): the AC50 was 0.398 µM [rising, partial curve].
`CCOc1ccc(-n2c(SCC(=O)NC(C)CC)nc3n[nH]c(C)c3c2=N)cc1` (configuration not stated): the AC50 was 12.6 µM [rising, partial curve].
To `C=CCn1c(SCC(=O)c2cccs2)nc2sc(CC)cc2c1=O` belongs 20 µM [falling, single point].
To `COc1cccc(-n2c(SCc3c(C)noc3C)nnc2-c2cccc(S(=O)(=O)N(C)C)c2)c1` belongs 6.31 µM [rising, single point]; to `Nc1nc(-c2ccccc2)nn1C(=O)Cc1ccccc1`, 0.00316 µM [falling, full curve, poor fit].
